In one test the target is fibronectin. As to the kind of experiment: affinity purification with mass spectrometry; fibronectin as bait on an avidin agarose column; M. hyopneumoniae protein lysate loaded in PBS (pH 7.8), washed with 4 column volumes of PBS, eluted with 7 M urea, 2 M thiourea, 40 mM Tris and 1% (w/v) C7BzO; elutions separated by 1D-SDS-PAGE and analysed by LC-MS/MS; only the target purified.

The target in a further test is plasminogen. As to the kind of experiment: affinity purification with mass spectrometry; plasminogen as bait on an avidin agarose column; M. hyopneumoniae protein lysate loaded in PBS (pH 7.8), washed with 4 column volumes of PBS, eluted with 30% acetonitrile, 0.4% trifluoroacetic acid; elutions separated by 1D-SDS-PAGE and analysed by LC-MS/MS; only the target purified.

These are yes or no findings as the source states them, for the method shown. In cells and extracts the contact can be indirect. Here binding means that the protein was enriched with, or labelled near, the bait; the list need not be complete. No binding means not detected with the bait.

B1: 50S ribosomal protein L16 (protein, UniProt Q4AAE7 1-136)
chain: MLQPKKTKHRKTFRLYHDKRDAHSGNFVAFGDYGLQATGSAWVSAAQIEAARIAITRRMGREGQVIIRVFPHLALTSKPIGVRMGSGKGSVDRWVAVVKRNTILFEVRGVKDEIARDALRLGGHKLPLKWKIVATV
Turning to B1, the binding result with fibronectin and in the test with plasminogen was “binds” in each case.

B2: Transcription elongation factor GreA (protein, UniProt Q4A921 1-160)
chain: MKNIVDDKILLTQQKLEEIEKELEHLINVERVNVIQEIKDARSQGDLSENAEYDVAREKQGIIESRIRELETIISKAKIIKADLGSSRVSIGSKVSLENVESGEIQTFQIVSSIDADPFKSKISNFSPIAQALLGQHQGDEVEVDVNEKYSVRILEVINE
As to B2, the binding result in the test with fibronectin and with plasminogen was “no binding” each time.

B3: 30S ribosomal protein S11 (protein, UniProt Q4AAG5 1-134)
chain: MATNVKKVKKLRPKNVTVGIAHIHSSHQNTIISFTDKQGNVISWASSGSVGFKGTKKKTAYAATLATAAAAQKAREHGIREVIVELKGTGQGKEAARKQIITSGLNILLTKDVTPVPHNGTRPPRKWFKRQEKR
In the case of B3, the binding entry with fibronectin and in the test with plasminogen was “binds” each time.

B4: L-lactate dehydrogenase (protein, UniProt P0C0J3 1-315)
chain: MKPIKIALIGAGNVGNSFLYAAMNQGLASEYGIIDINPDFADGNAFDFEDASASLPFPISVSRYEYKDLKDADFIVITAGRPQKPGETRLELVADNIRIIREIALKVKESGFSGISIIVANPVDIITRAYRDASGFSDQKVIGSGTVLDTARLQFAIAKRAKVSPNSVQAYVMGEHGDSSFVAYSNIKIAGECFCAYSKLTGIDSSNYEKELEYPVSRRAYEIINRKRATFYGIGAAIAKIVSNIIKDTKNIMIAGANLRGEYGFHGVNIGVPVVLGANGIEKIIEISLNDKEKEKFAKSVAIIDKIYQDAIKNI
On to B4, for which the binding result with fibronectin and with plasminogen was “binds” in each case.

B5: 46 kDa surface antigen (protein, UniProt P0C0J8 28-416)
chain: CGQTESGSTSDSKPQAETLKHKVSNDSIRIALTDPDNPRWISAQKDIISYVDETEAATSTITKNQDAQNNWLTQQANLSPAPKGFIIAPENGSGVGTAVNTIADKGIPIVAYDRLITGSDKYDWYVSFDNEKVGELQGLSLAAGLLGKEDGAFDSIDQMNEYLKSHMPQETISFYTIAGSQDDNNSQYFYNGAMKVLKELMKNSQNKIIDLSPEGENAVYVPGWNYGTAGQRIQSFLTINKDPAGGNKIKAVGSKPASIFKGFLAPNDGMAEQAITKLKLEGFDTQKIFVTGQDYNDKAKTFIKDGDQNMTIYKPDKVLGKVAVEVLRVLIAKKNKASRSEVENELKAKLPNISFKYDNQTYKVQGKNINTILVSPVIVTKANVDNPDA
Consider B5, for which the binding result in the test with fibronectin and with plasminogen was “binds” each time.

B6: 30S ribosomal protein S4 (protein, UniProt Q4A9B0 1-205)
chain: MSRYTGSIFRKSRRLGFSILETGKEFAKGKQRRYAPGLHGLRRSKPSDYGVHLREKQKVRFMYGLSEKQFRNTYRKATKKTGIAGTLFLQALESRLDNSVYRAGFAETRRQARQLVNHGHFLVNNKKVDIPSFQLKQGDIFELTTRKDGKIRKNQQILTSLETRTPAAWLEVDKDNFKVVFNRMPERSELNQEIKESLIVEFYSK
As to B6, the binding result in the test with fibronectin and with plasminogen was “binds” each time.

B7: 30S ribosomal protein S6 (protein, UniProt Q4AA43 1-241)
chain: MPKYEIMTILDPKAEMAIIDNLLKTVFGDNSTEKLRKLETTNLAYSIRKSKIAQYFLVDLNAPTNLIEEFVRRANITREIWRYLIVNLDSEKGLNKKPKIRERNRKYTLRRDRFDKPNFRGNPKSRFDQQDQQATKNQQNFQQNQQNQASQYRENSRQNQDDFQQVSSNQQNFGQNQQNQSGYHRENNRHNQENMHQNNKNHQNQTSQTQRNRRQYQPIKNPKFNQKEKENYNNKKPQSSN
Turning to B7, the binding entry in the test with fibronectin and with plasminogen was “binds” each time.

Values taken from article PMC5593965.
